Laboratory results reported in patent US20210346524A1, “FUSOGENIC LIPOSOMES FOR SELECTIVE IMAGING OF TUMOR CELLS” (APA- Advanced Technologies Ltd., priority 2018, published 2021).
At least one read-out could not be matched to a standard name with certainty.

Experiment: Solubilization of fluorophore in aqueous hydration solution for liposome encapsulation
Format: physicochemical

Structure (SMILES): CC1(C)C(/C=C/C=C/C=C/C=C2\N(CCCCS(=O)(=O)O)c3ccc4ccccc4c3C2(C)C)=[N+](CCCCS(=O)(=O)[O-])c2ccc3ccccc3c21 [ICG, indocyanine green]
- solubilization in 5% dextrose: readily solubilized
